Values joined by “and” are separate entries in the source; they are usually repeats but may differ in a detail not shown here. Equal entries are not always repeated. In all, about 1,900 compounds went through this assay and about 15 (0.8%) were called active.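 Rule for the calls: active = every replicate shows at least 50% inhibition; inconclusive = mean inhibition at least 50% but some replicate below; inactive = the rest.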 Some of the results follow.
Each molecule was assayed against DNA repair protein RAD52 homolog (Homo sapiens) (UniProt P43351) (assay: RAD52 ssDNA annealing inhibitors, primary screen, biochemical, FRET, single point (AID 651660;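 note: 0% = median of neutral control wells and 100% = median of positive control wells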)). Details: Recombinant RAD52 ssDNA annealing, FRET fluorescence, 30 min; at 18.7 µM; active compounds read high.

The chains behind the UniProt entries cited, without tags or fusion partners. Where a name states a change or a piece, a line headed by the entry shows the natural chain unless it says otherwise.
UniProt P43351: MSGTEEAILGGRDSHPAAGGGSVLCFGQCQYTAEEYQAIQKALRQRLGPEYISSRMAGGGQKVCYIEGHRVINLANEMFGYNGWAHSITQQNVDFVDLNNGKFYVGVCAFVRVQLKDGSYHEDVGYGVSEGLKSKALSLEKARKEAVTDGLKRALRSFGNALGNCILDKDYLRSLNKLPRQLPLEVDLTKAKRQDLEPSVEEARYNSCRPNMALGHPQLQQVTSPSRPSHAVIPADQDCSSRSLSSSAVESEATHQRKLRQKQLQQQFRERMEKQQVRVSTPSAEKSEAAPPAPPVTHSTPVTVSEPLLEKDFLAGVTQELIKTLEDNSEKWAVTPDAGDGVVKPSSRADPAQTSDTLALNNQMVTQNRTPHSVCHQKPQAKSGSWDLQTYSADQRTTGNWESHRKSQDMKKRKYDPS

Q: With `NCC(O)c1ccc(O)cc1` (centres undefined) as the molecule, how does the inhibition read?
A: inactive: -1.23%

Q: How did the inhibition turn out when `c1ccc(Cn2ccnc2)cc1` was run?
A: inactive: 0.152%

Q: `O=C1NCCN2CCCC12` (centres undefined) was tested. Which inhibition did it give?
A: inactive: -1.15%

Q: For `CN1C[C@H](CNC(=O)OCc2ccccc2)C[C@@H]2c3cccc4c3c(cn4C)C[C@H]21`, which inhibition is on record?
A: inactive: -58.1%

Q: How did the inhibition turn out when `OCc1cnc[nH]1` was run?
A: inactive: -0.84%

Q: With `Clc1ccc(COC(Cn2ccnc2)c2ccc(Cl)cc2Cl)cc1` (centres undefined) as the molecule, how does the inhibition read?
A: inactive: 31.4%

Q: How did the inhibition turn out when `C[C@H]1CCCC(=O)CCCCCc2cc(O)cc(O)c2C(=O)O1` was run?
A: inactive: 5.47%

Q: How did the inhibition turn out when `c1ccc2c(c1)OCC(C1=NCCN1)O2` (centres undefined) was run?
A: inactive: -11.4%

Q: `CC[N+]1(C)CCCC(OC(=O)C(O)(c2ccccc2)c2ccccc2)C1` (centres undefined) was tested. Which inhibition did it give?
A: inactive: 5.8%

Q: How did the inhibition turn out when `CCN(CC)C(=O)N[C@H]1C[C@@H]2c3cccc4[nH]cc(c34)C[C@H]2N(C)C1` was run?
A: inactive: -268%

Q: For `CC12CN3CC(c4ccccc4)(CN(C1)C31CCCCC1)C2=O`, which inhibition is on record?
A: inactive: 0.38%

Q: Which inhibition does the source give for `CCn1c(O)c(C(=O)CC2NCCc3ccccc32)c(=O)n(CC)c1=S` (centres undefined) here?
A: inactive: -169%

Q: With `C[N+]1(C)CCc2cc3c(cc2[C@H]1[C@@H]1OC(=O)c2c1ccc1c2OCO1)OCO3` as the molecule, how does the inhibition read?
A: inactive: 1.41% and inactive: -10.8%

Q: Which inhibition does the source give for `C=CC1CN2CCC1CC2[C@@H](OC(=O)c1ccc(OC)cc1)c1ccnc2ccccc12` (some centres undefined) here?
A: inactive: 9.32%

Q: With `NCCc1c[nH]c2ccc(F)cc12` as the molecule, how does the inhibition read?
A: inactive: 0.119%

Q: With `Cc1ccc(/C=C2/C(=O)NC(=O)N(C)C2=O)cc1` as the molecule, how does the inhibition read?
A: inactive: -8.8%

Q: `CCOC(=O)c1cncn1C(C)c1ccccc1` (centres undefined) was tested. Which inhibition did it give?
A: inactive: -7.55%

Q: How did the inhibition turn out when `c1cnc2c(c1)ccc1ncccc12` was run?
A: inactive: -3.46%

Q: `O=c1c2ccccc2nc(/C=C/c2ccc3c(c2)OCO3)n1-c1ccccc1` was tested. Which inhibition did it give?
A: inactive: -39.6%

Q: How did the inhibition turn out when `O=C(CCCN1CCC2(CC1)C(=O)NCN2c1ccccc1)c1ccc(F)cc1` was run?
A: inactive: -2.24%

Q: How did the inhibition turn out when `C[C@]12CCC(=O)C=C1CC[C@@H]1[C@@H]2CC[C@]2(C)C(=O)CC[C@@H]12` was run?
A: inactive: -2.86%

Q: With `OC(c1ccccc1)(c1ccccc1)C1CCNCC1` as the molecule, how does the inhibition read?
A: inactive: -3.89%

Q: For `COc1ccc(-c2nc3ccccc3c(=O)o2)cc1`, which inhibition is on record?
A: inactive: -14.9%

Q: For `CCCC(C)(COC(N)=O)COC(=O)NC(C)C` (centres undefined), which inhibition is on record?
A: inactive: 1.67%

Q: `CN1[C@@H]2CC[C@H]1CC(OC(=O)C1C=Nc3ccccc31)C2` (some centres undefined) was tested. Which inhibition did it give?
A: inactive: 4.33%

Q: Which inhibition does the source give for `O=C1CSC2N1CCNC21CCCCC1` (centres undefined) here?
A: inactive: 0.516%

Q: How did the inhibition turn out when `Clc1ccc(COC(Cn2ccnc2)c2ccc(Cl)cc2Cl)c(Cl)c1` (centres undefined) was run?
A: inactive: 47.6%

Q: Which inhibition does the source give for `COc1cccc(Oc2c(C)oc3cc(OC(=O)N(C)C)ccc3c2=O)c1` here?
A: inactive: 1.29%

Q: How did the inhibition turn out when `COc1ccc(CN2CC3CC(C2)c2cccc(=O)n2C3)cc1OC` (centres undefined) was run?
A: inactive: -36.3%

Q: How did the inhibition turn out when `COc1ccc(OC)c(C(O)C(C)N)c1` (centres undefined) was run?
A: inactive: -0.425%

Q: `Cn1c(O)c(C=NCCc2c[nH]c3ccccc23)c(=O)n(C)c1=O` was tested. Which inhibition did it give?
A: inactive: 0.501%

Q: How did the inhibition turn out when `COc1ccc(NC2=NCC(C)S2)cc1` (centres undefined) was run?
A: inactive: 1.6%

Q: Which inhibition does the source give for `c1ccc2c3c([nH]c2c1)CNCC3` here?
A: inactive: -8.2%

Q: Which inhibition does the source give for `CC(=O)[C@H]1CC[C@H]2[C@@H]3CC[C@H]4C[C@H](O)CC[C@]4(C)[C@H]3C(=O)C[C@]12C` here?
A: inactive: -3.97%

Q: Which inhibition does the source give for `CC(C)CCC1(CN2CCCC2=O)C(=O)NC(=O)NC1=O` here?
A: inactive: -4.57%

Q: `CCOc1ccc(N2C(=O)NC(=O)/C(=C\c3cc(OC)c(OC)cc3[N+](=O)[O-])C2=O)cc1` was tested. Which inhibition did it give?
A: inactive: -29.5%

Q: Which inhibition does the source give for `C[C@]12CC[C@@H]3c4ccc(O)c(O)c4CC[C@H]3[C@@H]1CC[C@@H]2O` here?
A: inactive: 1.02%

Q: Which inhibition does the source give for `CCN(CC)CCOC(=O)C(O)(c1ccccc1)c1ccccc1` here?
A: inactive: -2.73%

Q: For `Cc1ccc2c(c1)C1CN(C)CCC1N2C(=O)Nc1cccc(Cl)c1` (centres undefined), which inhibition is on record?
A: inactive: -5.83%

Q: Which inhibition does the source give for `CCCC(=O)OCC[N+](C)(C)C` here?
A: inactive: -0.115%

Q: Which inhibition does the source give for `CC(=O)c1ccc(-c2ccccc2)cc1` here?
A: inactive: 6.59%

Q: With `C[C@]12CCC(=O)C(O)=C1CC[C@@H]1[C@@H]2CC[C@]2(C)C(=O)CC[C@@H]12` as the molecule, how does the inhibition read?
A: inactive: -0.887%

Q: With `COc1ccccc1CN1CCCCC1c1cccnc1` (centres undefined) as the molecule, how does the inhibition read?
A: inactive: -1.64%

Q: For `CC12CN3CC(C)(CN(C1)C3c1cccs1)C2=O` (centres undefined), which inhibition is on record?
A: inactive: -2.15%

Q: Which inhibition does the source give for `Nc1ccc([As](=O)(O)O)cc1` here?
A: inactive: 7.08%

Q: `c1ccc2c(c1)[nH]c1cnccc12` was tested. Which inhibition did it give?
A: inactive: -1.28%

Q: How did the inhibition turn out when `O=Cc1cn(Cc2ccc(F)cc2)c2ccccc12` was run?
A: inactive: 7.25%

Q: With `CC(C)C(=O)Nc1ccc(S(=O)(=O)N2CC3CC(C2)c2cccc(=O)n2C3)cc1` (centres undefined) as the molecule, how does the inhibition read?
A: inactive: -1.51%

Q: How did the inhibition turn out when `CN[C@H](C)[C@H](O)c1ccccc1` was run?
A: inactive: -7.94%

Q: How did the inhibition turn out when `Cc1cc(Cl)ccc1OC(C)C(=O)O` (centres undefined) was run?
A: inactive: -13.2%

Q: How did the inhibition turn out when `CC(=O)Nc1cc([As](=O)(O)O)ccc1O` was run?
A: inactive: 3.96%

Q: `O=c1[nH]c2ccccc2n1C1CCN(CCCC(c2ccc(F)cc2)c2ccc(F)cc2)CC1` was tested. Which inhibition did it give?
A: inactive: 21.9%

Q: Which inhibition does the source give for `C[C@]12CCC(=O)C=C1CCC1C2CC[C@@]2(C)C1CC[C@@]2(O)CC#N` (some centres undefined) here?
A: inactive: -5.13%

Q: With `CC12CN3CC(C)(CN(C1)C3c1cccnc1)C2=O` (centres undefined) as the molecule, how does the inhibition read?
A: inactive: -5.86%

— PubChem BioAssay AID651660 (Broad Institute, 2012)
